According to patent US9540649B2, “Method for opening tight junctions” (The Provost, Fellows and Scholars of the College of the …, priority 2007, dated 2017):
Some of these results come from one statement about several compounds together.

Test system: BBB
Assay: BBB permeability (albumin, immunoglobulin, Hoechst) following suppression of occludin
Format: in vivo, C57/Bl-6 mice
Settings: 24 hours post siRNA injection
Description: The protocols used were identical to the protocols used in Example 1.

Row | Substance | size of molecules allowed to cross the BBB
1 | occludin siRNA (3): siRNA, target CAAAUUAUCGCACAUCAAG; sense GAACUACACGCUAUUAAACUU, anti-sense GUUUAAUAGCGUGUAGUUCUU (SEQ ID NO: 19, 20) (listed as RNA, chemistry not given here) | up to 70 kDa
2 | occludin siRNA (4): siRNA, target AGAUGGAUCGGUAUGAUAA; sense AAUAGUAUGGCUAGGUAGAUU, anti-sense UCUACCUAGCCAUACUAUUUU (SEQ ID NO: 21, 22) (listed as RNA, chemistry not given here) | up to 70 kDa
